Laboratory results published in paper PMC4562119.
These are yes or no findings as the source states them, for the method shown. Binding seen in cells or lysates may run through a third protein. Some entries that bind do so weakly or less than the wild type.

How the values were obtained:
[1] = biological target: T1, BORIS (Brother Of the Regulator of Imprinting Sites; CTCFL) (human (endogenous in K562, OVCAR8 and human testis)) (UniProt Q8NI51); assay: proximity ligation; in situ proximity ligation assay (ISPLA, Duolink) on fixed cells or tissue with mouse monoclonal anti-BORIS and rabbit anti-CTCF (D31H2); OVCAR8 cells, human testis tissue, MCF7+BORIS and MCF7+EV cells
T1 sequence: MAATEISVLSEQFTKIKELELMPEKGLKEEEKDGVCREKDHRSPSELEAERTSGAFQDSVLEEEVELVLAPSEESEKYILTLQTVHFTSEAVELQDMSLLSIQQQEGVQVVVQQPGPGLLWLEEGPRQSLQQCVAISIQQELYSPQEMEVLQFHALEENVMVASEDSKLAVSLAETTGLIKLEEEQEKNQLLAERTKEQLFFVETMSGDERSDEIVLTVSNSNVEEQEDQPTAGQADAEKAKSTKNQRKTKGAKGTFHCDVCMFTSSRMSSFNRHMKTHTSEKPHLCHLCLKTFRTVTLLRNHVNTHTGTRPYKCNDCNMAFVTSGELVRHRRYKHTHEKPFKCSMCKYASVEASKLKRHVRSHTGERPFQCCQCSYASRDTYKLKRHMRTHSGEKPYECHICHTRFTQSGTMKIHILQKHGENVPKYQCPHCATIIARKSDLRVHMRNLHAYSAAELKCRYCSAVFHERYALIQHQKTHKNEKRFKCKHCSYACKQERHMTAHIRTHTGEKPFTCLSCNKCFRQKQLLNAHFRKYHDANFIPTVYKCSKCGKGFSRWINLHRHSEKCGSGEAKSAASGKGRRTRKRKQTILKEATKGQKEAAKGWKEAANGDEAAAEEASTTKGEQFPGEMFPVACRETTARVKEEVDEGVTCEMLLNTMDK

[2] = biological target: T2, BORIS, exogenous, stably expressed in MCF7 cells (MCF7+BORIS) (UniProt Q8NI51); assay: as above
T2 sequence: T1 sequence

[3] = biological target: T1, BORIS (Brother Of the Regulator of Imprinting Sites; CTCFL) (human (endogenous in K562, OVCAR8 and human testis)); assay: co-IP; K562 lysates (1.5 mg total protein; RIPA buffer with 500 mM NaCl) immunoprecipitated with anti-BORIS or anti-CTCF monoclonal antibodies or mouse IgG overnight at 4 °C, with and without ethidium bromide; precipitates probed with CTCF antibodies

Measured: binding

B1: CTCF (CCCTC-binding factor) (protein, UniProt P49711 1-727)
chain: MEGDAVEAIVEESETFIKGKERKTYQRRREGGQEEDACHLPQNQTDGGEVVQDVNSSVQMVMMEQLDPTLLQMKTEVMEGTVAPEAEAAVDDTQIITLQVVNMEEQPINIGELQLVQVPVPVTVPVATTSVEELQGAYENEVSKEGLAESEPMICHTLPLPEGFQVVKVGANGEVETLEQGELPPQEDPSWQKDPDYQPPAKKTKKTKKSKLRYTEEGKDVDVSVYDFEEEQQEGLLSEVNAEKVVGNMKPPKPTKIKKKGVKKTFQCELCSYTCPRRSNLDRHMKSHTDERPHKCHLCGRAFRTVTLLRNHLNTHTGTRPHKCPDCDMAFVTSGELVRHRRYKHTHEKPFKCSMCDYASVEVSKLKRHIRSHTGERPFQCSLCSYASRDTYKLKRHMRTHSGEKPYECYICHARFTQSGTMKMHILQKHTENVAKFHCPHCDTVIARKSDLGVHLRKQHSYIEQGKKCRYCDAVFHERYALIQHQKSHKNEKRFKCDQCDYACRQERHMIMHKRTHTGEKPYACSHCDKTFRQKQLLDMHFKRYHDPNFVPAAFVCSKCGKTFTRRNTMARHADNCAGPDGVEGENGGETKKSKRGRKRKMRSKKEDSSDSENAEPDLDDNEDEEEPAVEIEPEPEPQPVTPAPPPAKKRRGRPPGRTNQPKQNQPTAIIQVEDQNTGAIENIIVEVKKEPDAEPAEGEEEEAQPAATDAPNGDLTPEMILSMMDR
binds: all assays above
